Laboratory results from US6670328.
These are yes or no findings as the source states them, for the method shown. For some assays here: In cells and extracts the contact can be indirect. Some binding calls cover weakened binding; strength is not graded here.

Amino acid sequences for entries named in this document (tags omitted). A change or cut given only in a name is not applied to a line headed by its entry.
UniProt P20701: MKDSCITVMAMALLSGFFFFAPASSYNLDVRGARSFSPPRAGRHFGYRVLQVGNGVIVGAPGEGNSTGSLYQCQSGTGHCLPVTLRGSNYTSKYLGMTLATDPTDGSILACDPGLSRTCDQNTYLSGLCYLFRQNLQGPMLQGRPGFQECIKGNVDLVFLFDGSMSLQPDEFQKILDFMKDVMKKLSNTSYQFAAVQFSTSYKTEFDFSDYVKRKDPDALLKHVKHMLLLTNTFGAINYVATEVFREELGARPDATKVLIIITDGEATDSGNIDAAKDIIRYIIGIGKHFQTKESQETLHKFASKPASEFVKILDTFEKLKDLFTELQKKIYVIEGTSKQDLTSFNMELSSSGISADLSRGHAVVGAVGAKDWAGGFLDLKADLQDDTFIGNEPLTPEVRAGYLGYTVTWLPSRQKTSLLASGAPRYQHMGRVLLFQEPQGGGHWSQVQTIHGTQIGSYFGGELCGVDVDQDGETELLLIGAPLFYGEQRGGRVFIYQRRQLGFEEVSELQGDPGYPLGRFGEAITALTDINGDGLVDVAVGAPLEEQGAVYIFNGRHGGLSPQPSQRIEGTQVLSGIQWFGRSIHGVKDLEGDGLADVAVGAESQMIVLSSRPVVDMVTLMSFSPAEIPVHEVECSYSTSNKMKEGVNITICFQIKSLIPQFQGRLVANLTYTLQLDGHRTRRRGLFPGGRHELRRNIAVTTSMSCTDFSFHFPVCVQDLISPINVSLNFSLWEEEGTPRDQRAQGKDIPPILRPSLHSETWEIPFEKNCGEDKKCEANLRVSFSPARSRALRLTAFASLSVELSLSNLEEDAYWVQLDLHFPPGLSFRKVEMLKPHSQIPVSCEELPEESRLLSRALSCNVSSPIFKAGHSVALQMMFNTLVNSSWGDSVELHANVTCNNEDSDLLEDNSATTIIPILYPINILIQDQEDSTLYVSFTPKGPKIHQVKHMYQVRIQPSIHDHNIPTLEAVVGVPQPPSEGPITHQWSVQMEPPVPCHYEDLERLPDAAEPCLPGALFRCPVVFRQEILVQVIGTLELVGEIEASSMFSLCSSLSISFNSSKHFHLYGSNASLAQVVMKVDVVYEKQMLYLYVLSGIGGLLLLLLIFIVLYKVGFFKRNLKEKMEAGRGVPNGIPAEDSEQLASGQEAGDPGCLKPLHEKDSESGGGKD
UniProt P05107: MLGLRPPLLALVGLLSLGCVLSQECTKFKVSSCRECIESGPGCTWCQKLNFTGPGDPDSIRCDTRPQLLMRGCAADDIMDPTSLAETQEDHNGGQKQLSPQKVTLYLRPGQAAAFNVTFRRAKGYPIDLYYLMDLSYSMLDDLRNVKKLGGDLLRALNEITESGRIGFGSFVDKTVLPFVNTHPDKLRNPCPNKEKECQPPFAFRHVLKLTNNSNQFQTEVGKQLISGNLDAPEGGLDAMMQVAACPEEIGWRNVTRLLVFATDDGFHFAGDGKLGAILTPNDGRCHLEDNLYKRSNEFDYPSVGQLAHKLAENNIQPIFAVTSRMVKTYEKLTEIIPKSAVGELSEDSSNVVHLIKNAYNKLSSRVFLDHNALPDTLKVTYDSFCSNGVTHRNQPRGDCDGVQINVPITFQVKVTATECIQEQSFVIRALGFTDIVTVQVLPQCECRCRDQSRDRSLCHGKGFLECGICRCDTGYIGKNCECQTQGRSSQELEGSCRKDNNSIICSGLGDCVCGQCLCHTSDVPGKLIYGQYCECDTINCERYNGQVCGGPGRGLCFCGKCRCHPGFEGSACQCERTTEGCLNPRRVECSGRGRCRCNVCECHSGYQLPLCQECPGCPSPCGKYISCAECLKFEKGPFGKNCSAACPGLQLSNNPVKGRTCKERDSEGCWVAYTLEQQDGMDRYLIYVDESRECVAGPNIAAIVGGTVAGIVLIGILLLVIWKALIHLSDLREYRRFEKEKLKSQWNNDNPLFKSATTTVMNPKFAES

Assays:
[1] = target: T1, LFA-1 (heterodimeric CD11a/CD18) (human) (UniProt P20701+P05107); test: BIAcore, ESM-1 at 100, 200 and 300 nM over LFA-1 captured by HI111
[2] = target: T1, LFA-1 (heterodimeric CD11a/CD18) (human); test: Jurkat cells with ESM-1 at 4 C or 37 C, ESM-1 ELISA of lysates
[3] = target: T1, LFA-1 (heterodimeric CD11a/CD18) (human); test: flow cytometry on human PBMC and Jurkat cells; binding disappeared in 5 mM EDTA
[4] = target: T1, LFA-1 (heterodimeric CD11a/CD18) (human); test: co-immunoprecipitation and binding assay on Jurkat cells, ESM-1 ELISA
[5] = target: T1, LFA-1 (heterodimeric CD11a/CD18) (human); test: resting Jurkat (and SIB-1) cells with ESM/WT for 1 h at 4 C, ESM-1 ELISA of lysates

Measured: binding

B1: secreted ESM-1 protein (Endothelial Cell Specific Molecule-1), purified wild-type form (ligand)
chain: WSNNYAVDCPQHCDSSECKSSPRCKRTVLDDCGCCRVCAAGRGETCYRTVSGMDGMKCGPCLRCQPSNCEDPFGEEFGICKDCPYGTFGMDCRETCNCQSCICDRGTGKCLKFPFFQYSVTKSSNRFVSLTEHDMASGDGNIVREEVVKENAAGSPVMRKWLNPR
binds: all assays above
